Counter-ions that a name gives are not always drawn. The list shows a part of the results. Small differences around the control level are noise.
Tested on: hPSC-derived cortical neurons (WA09)
Assay: KCl-induced FOS+/EGR-1+ double-positive nuclei fraction z-score (KCl minus unstimulated); higher = stronger activity-induced IEG response
Conditions: 5 µM; treatment: days 7-14 after plating, readout day 21

Row | SMILES | KCl-induced FOS+/EGR-1+ double-positive nuclei fraction z-score
1 | Cc1coc2c1C(=O)C(=O)c1c-2ccc2c1CCCC2(C)C [Tanshinone IIA] | 0.157
2 | Cc1ccc2nc(CN(CCN(Cc3nc4ccc(C)cc4[nH]3)Cc3nc4ccc(C)cc4[nH]3)Cc3nc4ccc(C)cc4[nH]3)[nH]c2c1 | -0.939
3 | CC(C)[C@H](N)C(=O)OCC(CO)OCn1cnc2c(=O)[nH]c(N)nc21 (stereo partly specified) [Valganciclovir HCl] | -0.838
4 | CN(C)CC/C=C1/c2ccccc2Sc2ccc(Cl)cc21 [Chlorprothixene] | -0.866
5 | CCOC(N)=O [Urethane] | 0.492
6 | O=C(NCc1ccncc1)C12CC3CC(C1)CC(c1ccc(Cl)cc1)(C3)C2 | 0.628
7 | N[C@@H]1CONC1=O [D-Cycloserine] | -0.988
8 | O=S(=O)(O)CCSSCCS(=O)(=O)O [Dimesna] | 0.213
9 | Cc1cn(-c2cc(NC(=O)c3ccc(C)c(Nc4nccc(-c5cnccn5)n4)c3)cc(C(F)(F)F)c2)cn1 [Radotinib] | 0.0679
10 | Cc1cc(O)c2c(c1)C(=O)c1cccc(O)c1C2=O [Chrysophanic Acid] | -0.334
11 | O=C(/C=C/c1ccc(O)c(O)c1)c1ccc(O)cc1O [Butein] | -2.19
12 | NC(=O)Nc1cc(-c2cccc(F)c2)sc1C(=O)N[C@H]1CCCNC1 | -1.26
13 | CN1CCN(CCCN2c3ccccc3Sc3ccc(Cl)cc32)CC1 [Prochlorperazine dimaleate salt] | -0.634
14 | CCCCCCCCOc1ccccc1C(=O)Nc1ccc(C(=O)OCC[N+](C)(CC)CC)cc1 [Otilonium Bromide] | -1.04
15 | COc1cc([C@@H]2c3cc4c(cc3[C@@H](O[C@@H]3O[C@@H]5CO[C@@H](C)O[C@H]5[C@H](O)[C@H]3O)[C@H]3COC(=O)[C@H]23)OCO4)cc(OC)c1O [Etoposide] | 0.359
16 | O=C1NCCCc2c1oc1ccc(O)cc21 | 0.0776
17 | CN[C@@H](C)C(=O)N[C@H](C(=O)N1CCC[C@H]1C(=O)Nc1snnc1-c1ccccc1)C1CCCCC1 | 1.53
18 | CC1=CC(=O)c2ccccc2C1=O [Menadione] | 0.186

Row | SMILES | KCl-induced FOS+/EGR-1+ double-positive nuclei fraction z-score
19 | CCCN1CCCC[C@H]1C(=O)Nc1c(C)cccc1C [Ropivacaine HCl] | 1.01
20 | N#CC1(c2ccc(NC(=O)c3cccnc3NCc3ccncc3)cc2)CCCC1 [Apatinib] | 0.557
21 | CC(C)[N+]1(C)[C@@H]2CC[C@H]1C[C@@H](OC(=O)C(CO)c1ccccc1)C2 (stereo partly specified) [Ipratropium Bromide] | -0.303
22 | COCCCOc1cc(C[C@@H](C[C@H](N)[C@@H](O)C[C@H](C(=O)NCC(C)(C)C(N)=O)C(C)C)C(C)C)ccc1OC [Aliskiren Hemifumarate] | -0.454
23 | O=C(N[C@H](CO)[C@H](O)c1ccc([N+](=O)[O-])cc1)C(Cl)Cl [Chloramphenicol] | 0.768
24 | CCCCC1C(=O)N(c2ccccc2)N(c2ccccc2)C1=O [Phenylbutazone] | -0.619
25 | CCN[C@H]1CN(CCCOC)S(=O)(=O)c2sc(S(N)(=O)=O)cc21 [Brinzolamide] | 0.439
26 | O=C(O)CC1CC(c2ccccc2)=NO1 (stereo unspecified) | 0.522
27 | CN(C)CCCN1c2ccccc2CCc2ccc(Cl)cc21 [Clomipramine HCl] | -0.479
28 | COc1cc(OC)c2c(=O)[nH]c(-c3cc(C)c(OCCO)c(C)c3)nc2c1 | 0.344
29 | CC(=O)N1CCN(CCOc2ccc(C3CCN(C4=Nn5c(nnc5C(F)(F)F)CC4)CC3)cc2)CC1 | 1.51
30 | CCCCCCCCCCC[C@@H](C[C@@H]1OC(=O)[C@H]1CCCCCC)OC(=O)[C@H](CC(C)C)NC=O [Orlistat] | -0.19
31 | CCN(CC)CCNC(=O)c1c(C)[nH]c(/C=C2\C(=O)Nc3ccc(F)cc32)c1C [Sunitinib] | -0.241
32 | CC[C@@H]1C(=O)N(C)c2cnc(Nc3ccc(C(=O)N[C@H]4CC[C@H](N5CCN(CC6CC6)CC5)CC4)cc3OC)nc2N1C(C)C [Volasertib (BI 6727)] | -2.02
33 | CCN1CCN(Cc2ccc(Nc3ncc(F)c(-c4cc(F)c5nc(C)n(C(C)C)c5c4)n3)nc2)CC1 | -0.633
34 | COC(=O)N[C@H](C(=O)N[C@@H](Cc1ccccc1)[C@@H](O)CN(Cc1ccc(-c2ccccn2)cc1)NC(=O)[C@@H](NC(=O)OC)C(C)(C)C)C(C)(C)C [Atazanavir Sulfate] | 0.675
35 | COC(=O)C1=CO[C@@H](O)[C@@H]2C(CO)=CC[C@H]12 [Genipin] | 1.15
36 | CC1(C)Cc2c(-c3ccccc3)c(-c3ccc(Cl)cc3)c(CC(=O)O)n2C1 [Licofelone] | -0.0523
